Amino acid sequences for entries named in this document (tags omitted). A change or cut given only in a name is not applied to a line headed by its entry.
UniProt P26418: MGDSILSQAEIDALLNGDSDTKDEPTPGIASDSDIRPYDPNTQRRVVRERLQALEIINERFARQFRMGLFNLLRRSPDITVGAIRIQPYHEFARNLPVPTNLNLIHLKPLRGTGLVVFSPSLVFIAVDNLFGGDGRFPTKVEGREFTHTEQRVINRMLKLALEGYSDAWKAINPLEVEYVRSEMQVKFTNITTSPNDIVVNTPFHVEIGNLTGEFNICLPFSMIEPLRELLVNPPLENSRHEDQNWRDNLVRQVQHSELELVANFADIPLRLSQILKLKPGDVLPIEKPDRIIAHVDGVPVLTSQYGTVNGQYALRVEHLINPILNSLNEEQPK

In PMC11087270, “CryoEM structures reveal how the bacterial flagellum rotates and switches direction” (Nature Microbiology, 2024):

Legend:
[1] = biological target: FliM (S. enterica serovar typhimurium), C-ring switch subunit (S. enterica serovar typhimurium) (UniProt P26418); assay: cryo-EM structure; MSC-ring particles with FliG ΔPAA (CW pose); C34 symmetry applied, symmetry expansion and local refinement of three staves; 4.6 Å; both purified
[2] = biological target: FliM (S. enterica serovar typhimurium), C-ring switch subunit (S. enterica serovar typhimurium) (UniProt P26418); assay: cryo-EM structure; wild-type MSC-ring particles (CCW pose); MS-ring or C-ring removed by particle subtraction; C-ring 34-mer at 4.0 Å (33-, 35-, 36-mer classes too), MS-ring 33-mer at 3.4 Å; both purified

B1: FliN (S. enterica serovar typhimurium), C-ring switch subunit (natural protein, UniProt P26419 1-137, looked up)
chain: MSDMNNPSDENTGALDDLWADALNEQKATTTKSAADAVFQQLGGGDVSGAMQDIDLIMDIPVKLTVELGRTRMTIKELLRLTQGSVVALDGLAGEPLDILINGYLIAQGEVVVVADKYGVRITDIITPSERMRRLSR
notes: FliN, S. enterica serovar typhimurium, expressed from the fliN gene on plasmid pKLR3; residues 45/59/63-137 of the three non-equivalent copies modelled in the C-ring; no tag is told; also called FliNC; FliN1; source: E. coli BL21-Gold, coexpressed from plasmid pKLR3; MSC-ring particles partially purified by differential membrane extraction
binding [1]: binds

B2: FliG (S. enterica serovar typhimurium), wild type, C-ring switch subunit (natural protein, UniProt P0A1J9 1-331, looked up)
chain: MSNLSGTDKSVILLMTIGEDRAAEVFKHLSTREVQALSTAMANVRQISNKQLTDVLSEFEQEAEQFAALNINANEYLRSVLVKALGEERASSLLEDILETRDTTSGIETLNFMEPQSAADLIRDEHPQIIATILVHLKRSQAADILALFDERLRHDVMLRIATFGGVQPAALAELTEVLNGLLDGQNLKRSKMGGVRTAAEIINLMKTQQEEAVITAVREFDGELAQKIIDEMFLFENLVDVDDRSIQRLLQEVDSESLLIALKGAEPPLREKFLRNMSQRAADILRDDLANRGPVRLSQVENEQKAILLIVRRLAETGEMVIGSGEDTYV
notes: FliG, S. enterica serovar typhimurium, expressed from the fliG gene on plasmid pKLR3; residues 1-331 modelled in the C-ring; no tag is told; also called FliGD1; FliGD2; source: E. coli BL21-Gold, coexpressed from plasmid pKLR3; MSC-ring particles partially purified by differential membrane extraction
binding [2]: binds

Results are given in words; binding and its absence hold for the method and conditions named. Binding can be weak; no strength is given.
